What all share (experiment): affinity purification with mass spectrometry; Flag-tagged IARS1 constructs transiently expressed in HEK293T, lysed with buffer X, Flag-M2 beads, eluted with 0.4 mg/mL Flag peptide, LC-MS/MS
Assay [1] deals with T1, Flag-tagged C-terminal-deleted IARS1 (ΔC, residues 1–1081) (human) (UniProt P41252).
T1 sequence: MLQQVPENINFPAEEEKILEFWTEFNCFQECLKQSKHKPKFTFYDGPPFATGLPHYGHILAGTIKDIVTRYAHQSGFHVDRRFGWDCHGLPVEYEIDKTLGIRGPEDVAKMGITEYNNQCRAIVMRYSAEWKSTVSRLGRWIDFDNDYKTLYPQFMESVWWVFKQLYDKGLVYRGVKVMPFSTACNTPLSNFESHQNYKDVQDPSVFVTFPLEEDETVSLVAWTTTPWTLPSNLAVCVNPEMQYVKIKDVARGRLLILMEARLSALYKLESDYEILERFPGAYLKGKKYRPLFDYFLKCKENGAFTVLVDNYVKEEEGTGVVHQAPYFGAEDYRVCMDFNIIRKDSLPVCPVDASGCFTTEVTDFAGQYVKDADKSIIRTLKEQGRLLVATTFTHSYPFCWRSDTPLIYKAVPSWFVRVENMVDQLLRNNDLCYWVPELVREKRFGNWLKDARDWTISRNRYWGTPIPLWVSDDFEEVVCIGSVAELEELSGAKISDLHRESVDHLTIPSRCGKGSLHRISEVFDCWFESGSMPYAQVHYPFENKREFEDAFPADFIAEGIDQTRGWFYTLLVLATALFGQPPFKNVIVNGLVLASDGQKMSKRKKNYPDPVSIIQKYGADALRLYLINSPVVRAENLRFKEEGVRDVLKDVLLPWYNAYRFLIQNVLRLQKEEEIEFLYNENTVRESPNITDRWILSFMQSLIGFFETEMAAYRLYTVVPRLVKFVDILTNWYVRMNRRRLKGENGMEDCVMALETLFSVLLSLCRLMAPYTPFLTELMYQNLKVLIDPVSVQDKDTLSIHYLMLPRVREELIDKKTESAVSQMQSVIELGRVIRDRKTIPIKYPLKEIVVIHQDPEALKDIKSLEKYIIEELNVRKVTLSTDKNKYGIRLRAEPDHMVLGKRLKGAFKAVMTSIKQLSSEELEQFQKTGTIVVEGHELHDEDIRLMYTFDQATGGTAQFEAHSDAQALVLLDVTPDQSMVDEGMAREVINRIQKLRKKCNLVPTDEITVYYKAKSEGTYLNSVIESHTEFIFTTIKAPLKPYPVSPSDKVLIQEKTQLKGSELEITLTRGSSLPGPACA

Assay [2] concerns the target T2, Flag-tagged IARS1 UNE-I domain (residues 942–1262) (human) (UniProt P41252).
T2 sequence: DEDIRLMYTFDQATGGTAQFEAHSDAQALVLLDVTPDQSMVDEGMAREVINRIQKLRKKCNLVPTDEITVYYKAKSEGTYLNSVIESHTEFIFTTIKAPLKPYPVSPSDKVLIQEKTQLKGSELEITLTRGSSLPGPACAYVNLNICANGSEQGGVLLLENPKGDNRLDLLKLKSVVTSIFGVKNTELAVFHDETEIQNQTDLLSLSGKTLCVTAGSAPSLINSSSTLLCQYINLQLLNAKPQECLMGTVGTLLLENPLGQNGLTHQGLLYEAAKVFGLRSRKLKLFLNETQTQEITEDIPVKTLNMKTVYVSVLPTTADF

In assay [3] the target is T3, Flag-tagged wild-type IARS1 (human), P41252.
T3 chain: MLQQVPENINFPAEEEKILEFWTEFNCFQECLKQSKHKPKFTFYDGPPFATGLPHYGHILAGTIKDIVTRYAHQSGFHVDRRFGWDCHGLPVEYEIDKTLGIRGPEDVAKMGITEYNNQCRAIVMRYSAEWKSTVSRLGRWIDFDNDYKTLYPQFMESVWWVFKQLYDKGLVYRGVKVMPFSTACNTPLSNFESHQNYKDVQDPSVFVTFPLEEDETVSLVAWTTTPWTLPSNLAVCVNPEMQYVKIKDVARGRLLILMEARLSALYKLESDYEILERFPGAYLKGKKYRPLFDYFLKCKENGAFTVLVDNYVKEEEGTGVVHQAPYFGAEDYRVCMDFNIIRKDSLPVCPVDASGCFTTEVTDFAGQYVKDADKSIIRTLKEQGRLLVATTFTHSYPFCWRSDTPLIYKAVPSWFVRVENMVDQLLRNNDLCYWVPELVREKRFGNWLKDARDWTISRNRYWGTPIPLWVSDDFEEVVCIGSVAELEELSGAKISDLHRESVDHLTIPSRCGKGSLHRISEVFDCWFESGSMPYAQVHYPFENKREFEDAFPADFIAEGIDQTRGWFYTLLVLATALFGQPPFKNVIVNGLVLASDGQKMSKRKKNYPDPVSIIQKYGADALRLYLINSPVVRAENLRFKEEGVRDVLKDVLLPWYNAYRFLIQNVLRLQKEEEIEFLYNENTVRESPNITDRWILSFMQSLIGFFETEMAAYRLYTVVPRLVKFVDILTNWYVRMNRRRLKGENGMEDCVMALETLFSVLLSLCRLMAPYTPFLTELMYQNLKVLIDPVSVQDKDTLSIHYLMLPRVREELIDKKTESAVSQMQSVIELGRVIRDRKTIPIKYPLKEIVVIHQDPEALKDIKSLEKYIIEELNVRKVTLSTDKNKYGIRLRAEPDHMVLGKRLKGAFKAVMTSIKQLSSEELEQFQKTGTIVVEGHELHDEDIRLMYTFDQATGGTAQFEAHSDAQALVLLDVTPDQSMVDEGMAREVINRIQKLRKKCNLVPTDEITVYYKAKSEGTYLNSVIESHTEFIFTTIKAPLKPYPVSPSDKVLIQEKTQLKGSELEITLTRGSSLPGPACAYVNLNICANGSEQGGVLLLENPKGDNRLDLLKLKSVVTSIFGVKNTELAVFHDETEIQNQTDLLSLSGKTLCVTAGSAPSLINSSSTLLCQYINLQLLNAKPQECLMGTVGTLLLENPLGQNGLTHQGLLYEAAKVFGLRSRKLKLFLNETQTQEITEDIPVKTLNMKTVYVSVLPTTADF
Conditions: remark: other sources report otherwise.

The target of assay [4] is T4, Flag-tagged wild-type IARS1 (human) (UniProt P41252).
T4 sequence: T3 chain

For three molecules, binding results are on record in paper PMC9643514.

No constants are given. Whether binding was seen depends on the method and setting. In cells and extracts the contact can be indirect. Here binding means that the protein was enriched with, or labelled near, the bait; the list need not be complete. For part of these data: A no says only that the protein was not detected with the bait. Tags and fused reporters may be left off the sequences shown.

B1: DARS1 (aspartyl-tRNA synthetase 1), endogenous (enzyme, UniProt P14868 1-501)
chain: MPSASASRKSQEKPREIMDAAEDYAKERYGISSMIQSQEKPDRVLVRVRDLTIQKADEVVWVRARVHTSRAKGKQCFLVLRQQQFNVQALVAVGDHASKQMVKFAANINKESIVDVEGVVRKVNQKIGSCTQQDVELHVQKIYVISLAEPRLPLQLDDAVRPEAEGEEEGRATVNQDTRLDNRVIDLRTSTSQAVFRLQSGICHLFRETLINKGFVEIQTPKIISAASEGGANVFTVSYFKNNAYLAQSPQLYKQMCICADFEKVFSIGPVFRAEDSNTHRHLTEFVGLDIEMAFNYHYHEVMEEIADTMVQIFKGLQERFQTEIQTVNKQFPCEPFKFLEPTLRLEYCEALAMLREAGVEMGDEDDLSTPNEKLLGHLVKEKYDTDFYILDKYPLAVRPFYTMPDPRNPKQSNSYDMFMRGEEILSGAQRIHDPQLLTERALHHGIDLEKIKAYIDSFRFGAPPHAGGGIGLERVTMLFLGLHNVRQTSMFPRDPKRLTP
Consider B1, for which the values for the binding entry in assay [1] and in assay [2] were “no binding” and “binds”, respectively.

B2: DARS1 (aspartyl-tRNA synthetase 1), endogenous, P14868 1-501 (enzyme)
chain: B1 chain
For B2, the binding entry in assay [3] is “binds”.

B3: QARS1 (glutaminyl-tRNA synthetase 1), endogenous (enzyme, UniProt P47897 1-775)
chain: MAALDSLSLFTSLGLSEQKARETLKNSALSAQLREAATQAQQTLGSTIDKATGILLYGLASRLRDTRRLSFLVSYIASKKIHTEPQLSAALEYVRSHPLDPIDTVDFERECGVGVIVTPEQIEEAVEAAINRHRPQLLVERYHFNMGLLMGEARAVLKWADGKMIKNEVDMQVLHLLGPKLEADLEKKFKVAKARLEETDRRTAKDVVENGETADQTLSLMEQLRGEALKFHKPGENYKTPGYVVTPHTMNLLKQHLEITGGQVRTRFPPEPNGILHIGHAKAINFNFGYAKANNGICFLRFDDTNPEKEEAKFFTAICDMVAWLGYTPYKVTYASDYFDQLYAWAVELIRRGLAYVCHQRGEELKGHNTLPSPWRDRPMEESLLLFEAMRKGKFSEGEATLRMKLVMEDGKMDPVAYRVKYTPHHRTGDKWCIYPTYDYTHCLCDSIEHITHSLCTKEFQARRSSYFWLCNALDVYCPVQWEYGRLNLHYAVVSKRKILQLVATGAVRDWDDPRLFTLTALRRRGFPPEAINNFCARVGVTVAQTTMEPHLLEACVRDVLNDTAPRAMAVLESLRVIITNFPAAKSLDIQVPNFPADETKGFHQVPFAPIVFIERTDFKEEPEPGFKRLAWGQPVGLRHTGYVIELQHVVKGPSGCVESLEVTCRRADAGEKPKAFIHWVSQPLMCEVRLYERLFQHKNPEDPTEVPGGFLSDLNLASLHVVDAALVDCSVALAKPFDKFQFERLGYFSVDPDSHQGKLVFNRTVTLKEDPGKV
For the molecule B3, the binding result is given as “no binding” in assay [1], “binds” in assay [2] and “binds” in assay [4].
